Experimental data: patent CN115028729A
These are yes or no findings as the source states them, for the method shown. Some results given as binding are weak or reduced against the parent protein; the word gives no strength.

Tests used:
[1] = target: T1, 重组尿酸氧化酶 (recombinant urate oxidase, made by the method of Chinese patent ZL02819387.3) (产朊假丝酵母 (Candida utilis)) (UniProt P78609); test: western blot; recombinant urate oxidase on 10% SDS-PAGE, transferred to PVDF, HRP goat anti-mouse secondary, ECL
T1 sequence (looked up): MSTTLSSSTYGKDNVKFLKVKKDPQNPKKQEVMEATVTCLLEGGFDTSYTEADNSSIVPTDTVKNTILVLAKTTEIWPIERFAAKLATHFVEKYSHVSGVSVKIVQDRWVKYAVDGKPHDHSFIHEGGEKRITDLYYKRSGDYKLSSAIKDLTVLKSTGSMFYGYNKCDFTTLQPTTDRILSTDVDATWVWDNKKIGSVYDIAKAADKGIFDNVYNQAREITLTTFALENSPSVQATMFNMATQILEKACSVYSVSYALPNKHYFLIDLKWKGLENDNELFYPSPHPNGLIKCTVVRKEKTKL

[2] = target: T1, 重组尿酸氧化酶 (recombinant urate oxidase, made by the method of Chinese patent ZL02819387.3) (产朊假丝酵母 (Candida utilis)); test: MSD bridging electrochemiluminescence ADA assay; biotin-urate oxidase on a streptavidin plate, ruthenium-labelled urate oxidase for detection

binding [1]: binds
binding [2]: binds
B1: 抗尿酸氧化酶单克隆抗体 (monoclonal antibody secreted by hybridoma cell line 29D7F2A8, CGMCC No.21493) (antibody, mouse IgG2a, kappa, V domains shown)
VH: QVQLQQPGAELVKPGTSVKLSCKTSGYTFTNYWIHWVKQGPGQGLEWIGEIDPSDSYTIYSQKFKGKATLTVDKFSSTAYMHLSSLTSEDSAVYYCARGDYALSWGQGTLVTVSA
VL: DIVMTQSHRFMSTSVGDRVSLTCKASQDVSTAVAWYQQKPGQSPKLLIYSASYRYTGVPDRFTGSGSGTDFTFTVSSVQAEDLAVYYCQQHYGAPYTFGGGTKLEIKR
